Results from paper PMC10253835, “Plakophilin-3 Binds the Membrane and Filamentous Actin without Bundling F-Actin” (International Journal of Molecular Sciences, 2023).
Results are given in words; binding and its absence hold for the method and conditions named.

Target: plakophilin-3 (residues 305-797) (human) (UniProt Q9Y446)
Experiment: condition: only with reducing agent (1 mM dithiothreitol in the column buffer); SEC-MALS; Superdex 200 10/300 GL, 20 mM Tris pH 7.5, 150 mM NaCl, 1 mM dithiothreitol; both purified

binding: no binding
B1: plakophilin-3 (residues 305-797) (domain or fragment, human, UniProt Q9Y446 305-797, looked up)
chain: SHRTLQRLSSGFDDIDLPSAVKYLMASDPNLQVLGAAYIQHKCYSDAAAKKQARSLQAVPRLVKLFNHANQEVQRHATGAMRNLIYDNADNKLALVEENGIFELLRTLREQDDELRKNVTGILWNLSSSDHLKDRLARDTLEQLTDLVLSPLSGAGGPPLIQQNASEAEIFYNATGFLRNLSSASQATRQKMRECHGLVDALVTSINHALDAGKCEDKSVENAVCVLRNLSYRLYDEMPPSALQRLEGRGRRDLAGAPPGEVVGCFTPQSRRLRELPLAADALTFAEVSKDPKGLEWLWSPQIVGLYNRLLQRCELNRHTTEAAAGALQNITAGDRRWAGVLSRLALEQERILNPLLDRVRTADHHQLRSLTGLIRNLSRNARNKDEMSTKVVSHLIEKLPGSVGEKSPPAEVLVNIIAVLNNLVVASPIAARDLLYFDGLRKLIFIKKKRDSPDSEKSSRAASSLLANLWQYNKLHRDFRAKGYRKEDFLGP
notes: pET28 construct with eight histidines followed by an HRV-3C site at the amino terminus; no cleavage step is described; The protein is found as monomer and as homodimer; also called armadillo repeat motif domain of plakophilin-3; Pkp3; source: E. coli BL21(DE3) Rosetta2, purified (Ni-nitriloacetic acid column, Superdex S-200 size exclusion)
